# Values of other authors, collected in patent US6362169B1 (priority 1998, dated 2002).
# For at least one compound, name, drawing or mass did not settle the structure.
# Tested on: Helicobacter pylori
# Details: prior art (WO 97/09047)
smiles,measurement,value
CO[C@H]1/C=C/O[C@@]2(C)Oc3c(C)c(O)c4c(O)c(c(/C=N/N5CCN(C)CC5)c(O)c4c3C2=O)NC(=O)/C(C)=C\C=C\[C@H](C)[C@H](O)[C@@H](C)[C@@H](O)[C@@H](C)[C@H](OC(C)=O)[C@@H]1C [rifampicin],minimum inhibitory concentration (MIC),high
